Reference: PubChem BioAssay AID1494156 (National Center for Advancing Translational Sciences (NCATS), 2020)
The inconclusive results got no clear call from the source; some entries with a clear call stand among them for comparison. A potency beside an inconclusive call is a rough fit, not a confirmed value. Active and inactive are the calls of the source. Calls come from the whole dose curve.

Assay: VSV-G qHTS counterscreen for inhibitors of MERS-S pseudo-typed particle cell entry
Details: VSV-G pseudotyped particle cell entry, luciferase counterscreen; series mostly up to 57.1 µM
In the case of CC(C)(C)NC(=O)[C@H]1CC[C@H]2[C@@H]3CC[C@H]4NC(=O)C=C[C@]4(C)[C@H]3CC[C@]12C, the Potency is reported as inconclusive: 42.9 µM [inhibitor, single point]. With CC[C@@]1(O)C(=O)OCc2c1cc1n(c2=O)Cc2cc3c(CN(C)C)c(O)ccc3nc2-1 the Potency was active: 0.0857 µM. With COc1cc(N)c(Cl)cc1C(=O)NC1CCN(CCCOc2ccc(F)cc2)CC1OC (configuration not stated) the Potency was inconclusive: 12.1 µM [inhibitor, partial curve]. In the case of CN1CC[C@H](CN2c3ccccc3Sc3ccccc32)C1, the Potency is reported as inconclusive: 42.9 µM [inhibitor, partial curve, poor fit]. In the case of CC(C)(C)NCC(O)COc1ccccc1C1CCCC1 (configuration not stated), the Potency is reported as inconclusive: 10.8 µM [inhibitor, partial curve, poor fit]. With C=CC1(C)CC(=O)C2(O)C(C)(O1)C(OC(C)=O)C(OC(=O)CCN(C)C)C1C(C)(C)CCC(O)C12C (configuration not stated) the Potency was “inactive”. For COC(=O)C[C@](O)(CCCC(C)(C)O)C(=O)O[C@@H]1C(OC)=C[C@]23CCCN2CCc2cc4c(cc2[C@H]13)OCO4, the Potency was active: 0.482 µM. In the case of CC(CN(C)C)CN1c2ccccc2CCc2ccccc21 (configuration not stated), the Potency is reported as “inactive”. For CCSc1ccc2c(c1)N(CCCN1CCN(C)CC1)c1ccccc1S2, the Potency was inconclusive: 42.9 µM [inhibitor, single point]. In the case of Cc1oncc1C(=O)Nc1ccc(C(F)(F)F)cc1, the Potency is reported as “inactive”. For CN(C)[C@@H](CCOc1cccc2ccccc12)c1ccccc1, the Potency was active: 21.5 µM. With CCn1cc(C(=O)O)c(=O)c2cc(F)c(N3CCNC(C)C3)c(F)c21 (configuration not stated) the Potency was “inactive”.
